Our source for the binding values is PMC6635525.

The chains behind the UniProt entries cited, without tags or fusion partners.
UniProt Q13114: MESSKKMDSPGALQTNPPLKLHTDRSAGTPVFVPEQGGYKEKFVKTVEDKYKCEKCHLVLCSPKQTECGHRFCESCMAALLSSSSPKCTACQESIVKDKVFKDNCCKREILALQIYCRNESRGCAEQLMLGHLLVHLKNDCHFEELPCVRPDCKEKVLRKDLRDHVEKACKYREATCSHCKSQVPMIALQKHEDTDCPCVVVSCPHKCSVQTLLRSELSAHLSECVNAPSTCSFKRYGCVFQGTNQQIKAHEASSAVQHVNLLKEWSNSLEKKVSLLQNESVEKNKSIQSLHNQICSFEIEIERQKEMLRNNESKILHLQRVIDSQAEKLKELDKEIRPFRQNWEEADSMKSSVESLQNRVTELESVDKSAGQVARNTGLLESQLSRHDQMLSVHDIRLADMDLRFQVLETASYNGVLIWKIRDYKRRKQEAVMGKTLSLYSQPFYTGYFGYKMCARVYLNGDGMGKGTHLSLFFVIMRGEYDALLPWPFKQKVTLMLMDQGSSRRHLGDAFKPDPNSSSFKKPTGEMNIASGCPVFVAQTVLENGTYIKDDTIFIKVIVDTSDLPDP
UniProt Q9Y4K3: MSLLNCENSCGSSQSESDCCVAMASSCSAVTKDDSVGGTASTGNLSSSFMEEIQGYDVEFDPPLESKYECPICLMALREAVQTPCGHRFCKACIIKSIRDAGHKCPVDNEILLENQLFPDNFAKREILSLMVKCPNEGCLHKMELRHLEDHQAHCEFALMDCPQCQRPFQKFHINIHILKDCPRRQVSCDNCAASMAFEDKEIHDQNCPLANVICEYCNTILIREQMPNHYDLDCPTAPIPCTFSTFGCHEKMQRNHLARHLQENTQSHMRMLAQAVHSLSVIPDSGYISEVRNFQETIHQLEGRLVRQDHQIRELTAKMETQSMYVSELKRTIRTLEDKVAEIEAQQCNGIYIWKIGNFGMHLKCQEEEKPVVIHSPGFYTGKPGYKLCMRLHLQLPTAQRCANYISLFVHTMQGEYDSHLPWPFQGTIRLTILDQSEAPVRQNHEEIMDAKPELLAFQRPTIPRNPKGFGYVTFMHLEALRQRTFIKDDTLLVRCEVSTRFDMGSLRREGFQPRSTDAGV

No constants are given. Whether binding was seen depends on the method and setting. Binding seen in cells or lysates may run through a third protein. These calls come from enrichment with a bait or labelling near it, and not all partners need be listed. A no says only that the protein was not detected with the bait.

For this test, the target named is ROP38I with a C-terminal HA-FLAG epitope tag (Toxoplasma gondii (type I, RH strain)) (UniProt S8FZ79). The test is described as follows: affinity purification with mass spectrometry; HA immunoprecipitation (magnetic beads coupled with HA antibodies, overnight at 4°C) from whole-cell lysates of tetracycline-induced TREX-293 GRA15II or ROP38I cells; beads analysed by LC-MS/MS; proteins also found in the ROP38I control excluded.

As for “TNF receptor-associated factor 3 (TRAF3) (from UniProt Q13114 1-568)”, the binding result is reported as “no binding”.
Turning to “TNF receptor-associated factor 6 (TRAF6) (from UniProt Q9Y4K3 1-522)”, the binding result was “no binding”.
